Drawing on publication PMC11470999, “Penfluridol inhibits melanoma growth and metastasis through enhancing von Hippel‒Lindau tumor suppressor‐mediated cancerous inhibitor of protein phosphatase 2A (CIP2A) degradation” (MedComm, 2024), this text covers binding for 2 substances.

Chains of the proteins cited; added tags and fusions are not shown.
UniProt P40338: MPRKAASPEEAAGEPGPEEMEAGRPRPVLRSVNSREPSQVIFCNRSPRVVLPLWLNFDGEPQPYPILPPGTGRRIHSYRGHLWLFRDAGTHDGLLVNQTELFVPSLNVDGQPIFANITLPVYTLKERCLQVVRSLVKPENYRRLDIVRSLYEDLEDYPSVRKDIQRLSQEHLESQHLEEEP

No constants are given. Whether binding was seen depends on the method and setting. For part of these data: In cells and extracts the contact can be indirect. Some results given as binding are weak or reduced against the parent protein; the word gives no strength.

The target of test [1] is cancerous inhibitor of protein phosphatase 2A (CIP2A), endogenous in B16 cells (mouse (endogenous in B16)) (UniProt Q8BWY9). Put plainly: pull-down; B16 and A375 cells treated with PF-Biotin; streptavidin-biotin pull-down; CIP2A and VHL detected by immunoblot.
For test [2] the target is unchanged. Nature of the test: co-IP; immunoprecipitation with an anti-CIP2A antibody from B16 and A375 cells, untreated or treated with 5 µM PF for 24 h; VHL detected by immunoblot.
The target of a further test is His-VHL (UniProt P40337). Put plainly: pull-down; His pull-down after incubating recombinant CIP2A (1-560), His-VHL and different concentrations of PF in vitro; Coomassie blue staining; both purified.

In the case of “von Hippel-Lindau tumor suppressor (VHL), endogenous in B16 cells (from UniProt P40338 1-181)”, the binding result in test [1] and in test [2] was “binds” in each case.

Consider “recombinant CIP2A protein (1-560) (from UniProt Q8TCG1 1-560) (domain or fragment)”, for which the binding result in the test with His-VHL was “binds”.
